The results in this text go back to PubChem BioAssay AID1487 (National Center for Advancing Translational Sciences (NCATS), 2009).

The nature of this assay: qHTS Assay for Modulators of Lamin A Splicing. As to conditions: HeLa LMNA splicing GFP/RFP minigene ratio, 48 h. Put shortly:
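S3 HeLa stable clones carrying a lamin A-EGFP splicing minigene plus DsRed2 were seeded at 600 cells/well in Opti-MEM with 2% FBS, pin-dosed and incubated 48 h at 37°C. Acumen cytometry (488 nm) gave the GFP/RFP total-intensity ratio.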
On the technique in general: Quantitative high-throughput screening tests each substance at several concentrations.

[1] abbreviates: measured here: RFP viability control channel.
Where [2] appears, read: measured here: GFP splicing reporter channel.

The term AC50 denotes the midpoint of the concentration-response curve, whichever way the signal moves.

The other results are listed elsewhere or left out. These are further read-outs of the screen, such as a control signal, another cell line or another target. No call is given for them. The list favours compounds with an active or inconclusive main result. Words in brackets tell the shape of the fitted curve; partial curves, single points and poor fits give uncertain potencies.

For `Cc1cc(C)n(Cc2ccc(Cl)nc2)n1`, the concentration at half-maximal activity (AC50) under setting [1] was 0.02 µM [falling, full curve, poor fit].

As to `O=C(NCc1ccco1)c1ccc([N+](=O)[O-])o1`, the half-maximal activity concentration (AC50) under setting [1] was 12.6 µM [rising, single point].

Regarding `Cc1cc(-c2ccc(Br)s2)nc(-n2cccc2)n1`, the AC50 by setting is: under setting [2], 5.62 µM [rising, full curve]; under setting [1], 7.94 µM [rising, partial curve].

For `N/C(Cc1ccc(Cl)cc1)=N\OC(=O)c1cccc2ccccc12`, under setting [2], the half-maximal activity concentration (AC50) was 15.8 µM [rising, partial curve, poor fit].

As to `CC(=O)c1cccc(S(=O)(=O)N2CCCC(c3nc(-c4ccc(C)o4)no3)C2)c1` (stereo not drawn), the AC50 under setting [1] was 11.2 µM [rising, partial curve].

As to `O=C(N/N=C/c1ccc(Br)o1)/C(=C/c1ccc([N+](=O)[O-])cc1)NC(=O)c1ccccc1`, under setting [1], the AC50 was 1.12 µM [rising, partial curve, poor fit].

Regarding `CCC(C)(C)n1nnnc1CN1CCN(c2nc3cc(OC)ccc3cc2C#N)CC1`, under setting [1], the half-maximal activity concentration (AC50) is 14.1 µM [rising, partial curve].

In the case of `C=C(C)c1cccc(C(C)(C)NC(=O)Nc2ccc(Cl)cn2)c1`, under setting [1], the AC50 is 20 µM [rising, partial curve].

As to `Cc1ccc(N/C=C2/Sc3ccccc3NC2=O)cc1`, the AC50 was 6.31 µM [rising, single point] under setting [2] and 3.55 µM [rising, full curve] under setting [1].

As to `NS(=O)(=O)c1ccc(NC(=S)NCc2ccc(F)cc2)cc1`, under setting [1], the AC50 is 8.91 µM [falling, partial curve, poor fit].

For `Cc1cc2c3c(c1C)C1(C(=O)N3C(C)(C)CC2C)C(C#N)=C(N)Oc2cc(O)ccc21` (stereo not drawn), the AC50 under setting [2] was 35.5 µM [rising, single point].

As to `NC(=S)NNC(=O)[C@@H]1CCCC[C@@H]1C(=O)O`, the AC50 was 0.01 µM [falling, full curve, poor fit] under setting [2] and 0.01 µM [falling, full curve, poor fit] under setting [1].

In the case of `CCOC(=O)c1sc(SCC(=O)Nc2ccc(N(C)C)cc2)nc1N`, the AC50 runs as follows: under setting [2], 0.631 µM [falling, partial curve]; under setting [1], 0.501 µM [falling, partial curve].

Take `CCOC(=O)C1=C(C)N(C)C(=S)NC1c1cccc(Cl)c1Cl` (stereo not drawn): the AC50 under setting [2] is 35.5 µM [falling, single point] and the concentration at half-maximal activity (AC50) under setting [1] was 11.2 µM [falling, partial curve, poor fit].

On to `CCc1nc(SCc2ccc(F)cc2)[nH]c(=O)c1C#N`, for which the AC50 under setting [1] is 17.8 µM [rising, partial curve].

For `COC(=O)c1c(C)sc(-c2c(-c3cccc(OC)c3)[nH]c3c2c(=O)[nH]c(=O)n3C)c1O`, the AC50 under setting [1] was 0.501 µM [rising, partial curve, poor fit].

With `CCC(C)(C(=O)NC1CCCCC1)N(C(=O)CC1NC(=O)NC1=O)c1c(C)n(C)n(-c2ccccc2)c1=O` (stereo not drawn), the AC50 under setting [2] is 0.158 µM [rising, full curve, poor fit].

On to `COc1cccc(NC(=O)CSc2nnc(Cc3cccs3)n2-c2ccc(C)cc2)c1`, for which the AC50 under setting [2] is 0.708 µM [rising, partial curve].

With `COC(=O)c1c(NC(=O)CSc2nnc3ccccn23)sc2c1CCC2`, the AC50 under setting [1] was 20 µM [rising, partial curve].

Take `CCN1CCN(CC(=O)N2CCCC(C(=O)c3ccc(Oc4ccccc4)cc3)C2)CC1` (stereo not drawn): under setting [1], the AC50 is 31.6 µM [rising, single point].

Take `COc1cccc(NC(=O)CN(c2ccc([N+](=O)[O-])cc2)S(=O)(=O)c2ccccc2)c1`: the concentration at half-maximal activity (AC50) under setting [1] is 17.8 µM [rising, single point].

As for `CCOc1ccc(S(=O)(=O)NCc2ccncc2)cc1`, the AC50 under setting [2] was 7.08 µM [rising, partial curve] and the AC50 under setting [1] was 0.398 µM [rising, full curve].

With `Cc1cc(C)nc(NC(=NCCc2c[nH]c3ccccc23)NC(=O)c2ccco2)n1`, the AC50 under setting [2] is 31.6 µM [rising, single point] and the AC50 under setting [1] was 22.4 µM [rising, single point].

Consider `O=C(Cc1cccc2ccccc12)Nc1ccccc1C(=O)O`, for which the AC50 under setting [1] is 10 µM [rising, partial curve].

For the molecule `COC(=O)c1ccc(-n2c(C)cc(-c3csc(NC(=O)c4ccc(S(=O)(=O)N(C)C)cc4)n3)c2C)cc1`, the AC50 under setting [1] is 6.31 µM [rising, full curve, poor fit].

`Cc1ccc(N2C(=O)N(Cc3ccccc3C)c3ccccc3S2(=O)=O)cc1`: the AC50 was 11.2 µM [rising, single point] under setting [2] and 17.8 µM [rising, single point] under setting [1].

On to `CCCN(CCC)C(=O)Cn1ccc(=N)c2ccccc21`, for which the AC50 under setting [2] was 12.6 µM [rising, single point] and the AC50 under setting [1] is 2 µM [rising, partial curve, poor fit].

For the molecule `CCn1c(SCC(=O)N/N=C/c2c[nH]c3ccccc23)nnc1-c1ccc(C(C)(C)C)cc1`, the AC50 by setting is: under setting [2], 14.1 µM [rising, partial curve]; under setting [1], 22.4 µM [rising, partial curve].

On to `COc1ccc(CNc2cc(C)nc3ncnn23)c(OC)c1`, for which the AC50 is, setting by setting: under setting [2], 7.94 µM [rising, partial curve, poor fit]; under setting [1], 3.16 µM [rising, full curve].

In the case of `Cc1ccc(S(=O)(=O)c2c(Nc3cccc(Cl)c3)sc(C(=O)c3ccc4c(c3)OCO4)c2N)cc1`, the AC50 under setting [1] is 6.31 µM [rising, full curve].

For `Cc1ccc(C)c(-n2nnnc2SCC(=O)c2ccc3c(c2)NC(=O)CO3)c1`, the AC50 under setting [2] is 12.6 µM [rising, single point].

Turning to `COc1ccccc1NC(=O)C1=C(C)NC(SCC(=O)c2ccc(C)cc2)=C(C#N)C1c1ccco1` (stereo not drawn), the AC50 is, setting by setting: under setting [2], 10 µM [rising, partial curve, poor fit]; under setting [1], 11.2 µM [rising, partial curve].

`CCCCCC(=O)N1CCN(c2ccc(C(C)=O)cc2F)CC1`: under setting [1], the AC50 is 10 µM [rising, partial curve, poor fit].

Regarding `O=C(c1cc([N+](=O)[O-])ccc1Cl)N1c2ccccc2Sc2ccccc21`, the AC50 under setting [1] is 35.5 µM [rising, single point].

As to `Cn1c(C(=O)N2CCCC(C(=O)NCCCc3ccccc3)C2)cc2sccc21` (stereo not drawn), the AC50 was 31.6 µM [rising, single point] under setting [2] and 31.6 µM [rising, single point] under setting [1].
